Experimental data taken from PubChem BioAssay AID248 (DTP/NCI, 2004).
The list shows only some results of the screen, not a fair sample: it is rich in T/C values a quarter to a half above the control, in often repeated tests (any T/C) and in doses without a T/C. Other doses and runs of a compound stand elsewhere. T/C: endpoint of the treated group in % of that of the vehicle group. Some entries give survivors of the animals treated and no T/C: the source files T/C as zero there, which appears to mark a toxic dose or a test without result, not a measured value. Some doses without a T/C left all or most animals alive at the check, yet need not have been tolerated: survival well below the control is almost never listed, so the zero probably covers shortened survival too. Counts of survivors are from the toxicity check (mostly the fifth day) where no day follows; animals may have died later. Schedule codes are those of the source, read here as Q, the interval in days (D) or hours (H), X, the number of doses. Some entries hold several experiments; their values stand side by side, smallest first. Where survival is the endpoint, this PubChem deposit counts one and a half times the control or more as active, and values a quarter to a half above the control carry no call in these data; other NCI protocols may use other cut-offs. Some T/C values carry the count of animals alive at the toxicity check (mostly the fifth day); without a count, all were alive then.

Tested on: L1210 leukemia ip in BDF1 mice, survival T/C
Assay: NCI In Vivo Anticancer Drug Screen. Data for tumor model L1210 Leukemia (intraperitoneal) in B6D2F1 (BDF1) mice
Settings: T/C endpoint: mean survival time, higher T/C = longer survival
[1] = dose: 100.0 mg/kg/injection, schedule: Q01DX009 (ip), vehicle: saline
[2] = dose: 200.0 mg/kg/injection, schedule: Q01DX009 (ip), vehicle: saline
[3] = dose: 400.0 mg/kg/injection, schedule: Q01DX009 (ip), vehicle: saline
[4] = dose: 400.0 mg/kg/injection, schedule: Q04DX003 (ip), vehicle: Klucel (hydroxypropylcellulose) (HPC)
[5] = dose: 150.0 mg/kg/injection, schedule: Q01DX001 (ip), vehicle: saline
[6] = dose: 300.0 mg/kg/injection, schedule: Q01DX001 (ip), vehicle: saline
[7] = dose: 100.0 mg/kg/injection, schedule: Q04DX002 (ip), vehicle: saline with Tween-80
[8] = dose: 400.0 mg/kg/injection, schedule: Q01DX001 (ip), vehicle: saline
[9] = dose: 50.0 mg/kg/injection, schedule: Q01DX009 (ip), vehicle: saline

`OC(c1cc2ccc(C(F)(F)F)cc2c2cc(C(F)(F)F)ccc12)C1CCCCN1` (stereo not drawn) was tested, and the survivor count (dose: 12.5 mg/kg/injection, schedule: Q01DX009 (ip), vehicle: saline with Tween-80) was 6 of 6, the survivor count (dose: 25.0 mg/kg/injection, schedule: Q01DX009 (ip), vehicle: saline with Tween-80) was 6 of 6 and the survivor count (dose: 50.0 mg/kg/injection, schedule: Q01DX009 (ip), vehicle: saline with Tween-80) was 6 of 6. For the same molecule, the survivor count [1] was 0 of 6, the survivor count (dose: 100.0 mg/kg/injection, schedule: Q04DX003 (ip), vehicle: Klucel (hydroxypropylcellulose) (HPC)) was 6 of 6 and the survivor count [2] was 0 of 6. For the same molecule, the survivor count (dose: 200.0 mg/kg/injection, schedule: Q04DX003 (ip), vehicle: Klucel (hydroxypropylcellulose) (HPC)) was 3 of 6, the survivor count [3] was 0 of 6 and the survivor count [4] was 0 of 6.

`C=C[C@@](C)(O)CC/C=C(/C)CCC=C(C)C` was tested, and the survivor count [1] was 6 of 6, the survivor count [2] was 2 of 6 and the survivor count [3] was 0 of 6.

For `CN1CCN(CCSC(=O)N2c3ccccc3Sc3ccc(Cl)cc32)CC1`, the survivor count [5] was 2 of 6 and the survivor count [6] was 0 of 6.

With `CN(CCO)C1CCCCCCC1` the survivor count (dose: 200.0 mg/kg/injection, schedule: Q01DX001 (ip), vehicle: acetone) was 1 of 6 and the survivor count (dose: 400.0 mg/kg/injection, schedule: Q01DX001 (ip), vehicle: acetone) was 0 of 6.

For `COc1cc([N+](=O)[O-])ccc1S(=O)(=O)Cl`, the survivor count (dose: 100.0 mg/kg/injection, schedule: Q01DX009 (ip), vehicle: saline with Tween-80) was 2 of 6, the T/C [7] was 95 [5 of 6 alive], 96, 109 % of control and the survivor count [7] was 3 of 3. For the same molecule, the survivor count (dose: 200.0 mg/kg/injection, schedule: Q01DX001 (ip), vehicle: saline with Tween-80) was 0 of 6, the survivor count (dose: 200.0 mg/kg/injection, schedule: Q04DX002 (ip), vehicle: saline with Tween-80) was 1 of 3 and 2 of 6 and the survivor count (dose: 400.0 mg/kg/injection, schedule: Q04DX002 (ip), vehicle: saline with Tween-80) was 0 of 3 and 1 of 6.

For `CC(C)c1cc(O)ccc1N(C)C` (tested in a mixture with another compound), the survivor count (dose: 100.0 mg/kg/injection, schedule: Q01DX001 (ip), vehicle: saline) was 0 of 6, the survivor count (dose: 200.0 mg/kg/injection, schedule: Q01DX001 (ip), vehicle: saline) was 0 of 6 and the survivor count [8] was 0 of 6. For the same molecule, the survivor count (dose: 6.3 micrograms/kg/injection, schedule: Q01DX009 (ip), vehicle: saline) was 3 of 6 and the survivor count (dose: 12.5 micrograms/kg/injection, schedule: Q01DX009 (ip), vehicle: saline) was 2 of 6.

In the case of `O=[N+]([O-])c1ccccc1N=C=S`, the survivor count (dose: 50.0 mg/kg/injection, schedule: Q01DX009 (ip), vehicle: gum acacia) was 3 of 3, the survivor count (dose: 100.0 mg/kg/injection, schedule: Q01DX009 (ip), vehicle: gum acacia) was 3 of 3 and the survivor count (dose: 200.0 mg/kg/injection, schedule: Q04DX002 (ip), vehicle: gum acacia) was 3 of 3. For the same molecule, the survivor count (dose: 400.0 mg/kg/injection, schedule: Q04DX002 (ip), vehicle: gum acacia) was 0 of 3.

For `CSc1ncc(C=O)c(N)n1`, the survivor count (dose: 400.0 mg/kg/injection, schedule: Q01DX009 (ip), vehicle: saline with Tween-80) was 3 of 6.

With `CCOC(=O)N/N=C(\C)c1ccc(OC)cc1` the survivor count (dose: 400.0 mg/kg/injection, schedule: Q01DX009 (ip), vehicle: Klucel (hydroxypropylcellulose) (HPC)) was 5 of 6.

In the case of `CC[CH2][Sn]([Br])([CH2]CC)[CH2]CC`, the survivor count (dose: 6.25 mg/kg/injection, schedule: Q01DX009 (ip), vehicle: saline) was 0 of 3, the survivor count (dose: 25.0 mg/kg/injection, schedule: Q01DX009 (ip), vehicle: saline) was 0 of 3 and the survivor count [9] was 0 of 3. The survivor count [1] was 0 of 3 and 0 of 6, the survivor count [2] was 0 of 6 and the survivor count [3] was 0 of 6.

With `N#CC1CS(=O)(=O)C1` the survivor count [3] was 3 of 6.

For `CC1=CC(=N/S(=O)(=O)c2ccccc2)/C2CC(C)=C(C)CC2/C1=N\S(=O)(=O)c1ccccc1` (stereo not drawn), the survivor count [4] was 6 of 6.

For `CCCNCC1OC(OC)C2OC(C)(C)OC12` (stereo not drawn), the survivor count [9] was 6 of 6.

For `C[N+]1(C)CCN(c2ccccc2)CC1`, the survivor count (dose: 37.5 mg/kg/injection, schedule: Q01DX001 (ip), vehicle: saline) was 0 of 6, the survivor count (dose: 75.0 mg/kg/injection, schedule: Q01DX001 (ip), vehicle: saline) was 0 of 6 and the survivor count [5] was 0 of 6. The survivor count [6] was 0 of 6.

In the case of `Cc1nc2ccccc2c(=O)n1N`, the survivor count [8] was 0 of 6.

With `OC(CC(O)(C(F)(F)F)C(F)(F)F)c1cccc(C(F)(F)F)c1` (stereo not drawn) the T/C (dose: 200.0 mg/kg/injection, schedule: Q04DX003 (ip), vehicle: other) was 128 % of control.

With `O=C(NCCl)Nc1ccccc1` the survivor count (dose: 200.0 mg/kg/injection, schedule: Q04DX002 (ip), vehicle: saline + alcohol) was 1 of 3 and the survivor count (dose: 400.0 mg/kg/injection, schedule: Q04DX002 (ip), vehicle: saline + alcohol) was 0 of 3.

In the case of `O=C(O)CCc1cccc(O)c1`, the survivor count (dose: 100.0 mg/kg/injection, schedule: Q04DX002 (ip), vehicle: Klucel (hydroxypropylcellulose) (HPC)) was 3 of 3, the survivor count (dose: 200.0 mg/kg/injection, schedule: Q04DX002 (ip), vehicle: Klucel (hydroxypropylcellulose) (HPC)) was 3 of 3 and the survivor count (dose: 400.0 mg/kg/injection, schedule: Q04DX002 (ip), vehicle: Klucel (hydroxypropylcellulose) (HPC)) was 2 of 3.
